Some entries of the source have several records that differ or are many. The list is limited to them. The source may hold further records. The records of an entry differ for a reason that is not stated; some may be repeats, others may stem from another dose, organism or construct than stated.
Target: CSNK1A1 (Homo sapiens (Human), UniProt P48729)
Assay: CSNK1A1 Assay 1 (ADP-Glo, 1 μM ATP)
Details: read-out: CSNK1A1 Assay 1 IC50 [mol/l] (median), comparison compounds of WO 2016/120196

Protein sequences, listed by entry. Tags and fused reporters are not part of them.
UniProt P48729, whole entry: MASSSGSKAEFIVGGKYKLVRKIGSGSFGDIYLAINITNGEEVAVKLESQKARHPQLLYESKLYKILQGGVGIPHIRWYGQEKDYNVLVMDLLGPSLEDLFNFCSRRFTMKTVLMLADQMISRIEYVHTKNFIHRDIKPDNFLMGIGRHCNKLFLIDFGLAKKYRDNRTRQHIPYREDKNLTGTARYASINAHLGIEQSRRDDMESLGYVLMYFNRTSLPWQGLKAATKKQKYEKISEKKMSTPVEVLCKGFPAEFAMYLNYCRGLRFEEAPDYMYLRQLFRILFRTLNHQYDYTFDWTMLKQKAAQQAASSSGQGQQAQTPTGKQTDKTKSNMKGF

- IC50: 9.32, 10.1, 5.57, 4.38 nM
SMILES: CN1CCc2[nH]c(-c3ccnc(NC(=O)C4CC4)c3)c(Nc3ccccc3)c2C1=O

From patent US20230322767A1, “ARYL SUBSTITUTED PYRROLO-PYRIDINONES AND THERAPEUTIC USES THEREOF” (Bayer Aktiengesellschaft, priority 2020, published 2023)
